Laboratory results reported in paper PMC9520005.
Results are given in words; binding and its absence hold for the method and conditions named. In cells and extracts the contact can be indirect. Some entries that bind do so weakly or less than the wild type.

Target: T1, bZIP63, pSPYNE(R)173-bZIP63 (UniProt B9DGI8)
T1 sequence: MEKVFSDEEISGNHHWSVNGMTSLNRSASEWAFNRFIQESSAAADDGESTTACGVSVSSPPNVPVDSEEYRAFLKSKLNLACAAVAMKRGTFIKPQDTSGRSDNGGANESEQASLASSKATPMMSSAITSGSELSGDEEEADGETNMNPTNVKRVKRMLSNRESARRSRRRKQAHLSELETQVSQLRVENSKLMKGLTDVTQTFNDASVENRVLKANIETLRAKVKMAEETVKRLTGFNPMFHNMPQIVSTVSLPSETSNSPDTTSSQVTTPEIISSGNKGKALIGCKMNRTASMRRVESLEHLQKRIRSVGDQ
Assay: split reporter; BiFC: pSPYNE(R)173 and pSPYCE(M) fusions transiently co-expressed in N. benthamiana leaves by Agrobacterium GV3101 infiltration, 2 days at about 21°C, laser confocal microscopy (488 nm excitation, 509 nm emission)

binding: binds
B1: bZIP1, pSPYCE(M)-bZIP1 (protein, UniProt Q9FGX2 1-145)
chain: MANAEKTSSGSDIDEKKRKRKLSNRESARRSRLKKQKLMEDTIHEISSLERRIKENSERCRAVKQRLDSVETENAGLRSEKIWLSSYVSDLENMIATTSLTLTQSGGGDCVDDQNANAGIAVGDCRRTPWKLSCGSLQPMASFKT
